PubChem BioAssay AID1259424 | University of Nebraska Medical Center – 2018
Shown is an unselected part of about 14,000 reagents tested. 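Higher correlation or smaller distance means closer resemblance to KSR1 loss; control wells, including KSR1 knockdowns, recur on many plates.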 Not stated in the record: the time to read-out.

- Screen: 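Find knockdowns that reproduce the expression shifts seen after KSR1 loss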 (primary screen)
- Cells: human HCT116 colon cancer cells
- Reagent: siRNA pool against human genes, 50 nM
- Measured: 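Six signature mRNAs by branched-DNA multiplex assay, scaled to two housekeeping genes and non-targeting median, log2; matched to mean KSR1 knockdown profile by Pearson correlation and euclidean distance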
- Scale: mean correlation with KSR1 profile and KSR1 correlation: higher = expression change more like KSR1 knockdown; mean distance from KSR1 profile: higher = expression change less like KSR1 knockdown

The first 5 entries as a preview:
| gene | mean correlation with KSR1 profile | mean distance from KSR1 profile | KSR1 correlation, replicate 1 | KSR1 correlation, replicate 2 | KSR1 correlation, replicate 3 |
| --- | --- | --- | --- | --- | --- |
| DEK | 0.212 | 2.24 | -0.132 | 0.296 | 0.362 |
| PSME2 | -0.0713 | 1.43 | 0.0926 | -0.357 | 0.083 |
| PHYHIP | -0.0955 | 1.92 | 0.0997 | 0.103 | -0.243 |
| RALGAPA2 | -0.0474 | 2.22 | 0.343 | -0.229 | -0.308 |
| PMP22 | -0.369 | 2.97 | -0.508 | -0.374 | -0.495 |

The listing, from the start:
| gene | mean correlation with KSR1 profile | mean distance from KSR1 profile | KSR1 correlation, replicate 1 | KSR1 correlation, replicate 2 | KSR1 correlation, replicate 3 |
| --- | --- | --- | --- | --- | --- |
| DEK | 0.212 | 2.24 | -0.132 | 0.296 | 0.362 |
| PSME2 | -0.0713 | 1.43 | 0.0926 | -0.357 | 0.083 |
| PHYHIP | -0.0955 | 1.92 | 0.0997 | 0.103 | -0.243 |
| RALGAPA2 | -0.0474 | 2.22 | 0.343 | -0.229 | -0.308 |
| PMP22 | -0.369 | 2.97 | -0.508 | -0.374 | -0.495 |
| GOLGB1 | 0.0601 | 2.2 | 0.0584 | 0.0143 | -0.0587 |
| DCAF16 | 0.519 | 1.65 | 0.469 | 0.342 | 0.328 |
| ELOVL2 | 0.244 | 1.55 | 0.173 | 0.0387 | 0.452 |
| DMAC2L | -0.208 | 1.46 | -0.491 | -0.713 | -0.326 |
| SLC34A2 | -0.858 | 1.77 | -0.911 | -0.693 | -0.863 |
| MTAP | 0.332 | 1.8 | 0.26 | 0.342 | 0.301 |
| SUV39H1 | 0.158 | 1.67 | -0.1 | 0.206 | 0.302 |
| APOBEC3A | -0.443 | 4.42 | -0.492 | -0.469 | -0.448 |
| LCE2B | 0.474 | 2.59 | -0.0104 | 0.112 | 0.625 |
| UTRN | -0.0446 | 1.42 | -0.149 | 0.0946 | 0.136 |
| CD34 | 0.577 | 3.01 | 0.551 | 0.642 | 0.688 |
| ORC1 | -0.392 | 2.29 | -0.108 | -0.211 | -0.56 |
| ZAN | 0.473 | 1.17 | 0.557 | 0.609 | 0.422 |
| ADK | 0.446 | 1.78 | 0.625 | 0.417 | -0.0907 |
| PTBP1 | -0.767 | 2.27 | -0.786 | -0.867 | -0.778 |
| GRB14 | -0.329 | 2.72 | -0.318 | -0.284 | -0.467 |
| GDF5 | 0.446 | 1.15 | 0.442 | 0.319 | 0.436 |
| FHIT | 0.108 | 2.18 | 0.141 | 0.375 | 0.0338 |
| BCKDHB | 0.475 | 4.13 | 0.197 | 0.298 | 0.726 |
| DPP4 | -0.00287 | 1.84 | 0.0825 | 0.25 | -0.165 |
| GPA33 | -0.117 | 2.7 | 0.0172 | -0.0482 | -0.198 |
| NDUFB1 | -0.435 | 1.83 | -0.266 | -0.333 | -0.39 |
| BCHE | -0.286 | 1.4 | -0.439 | -0.131 | -0.295 |
| ACTL7A | -0.418 | 1.37 | -0.169 | -0.28 | -0.572 |
| PRKCI | 0.432 | 1.41 | 0.665 | 0.356 | 0.14 |
| TMEM164 | 0.327 | 2.52 | 0.037 | 0.354 | 0.438 |
| RIC8B | 0.0985 | 2.11 | 0.172 | -0.0736 | -0.0166 |
| FCRL4 | -0.688 | 2.98 | -0.699 | -0.726 | -0.719 |
| ACSS1 | 0.0491 | 2.78 | 0.105 | 0.268 | -0.118 |
| LDB2 | -0.0296 | 2.68 | 0.156 | 0.141 | -0.155 |
| RPS27A | 0.247 | 3.15 | 0.177 | 0.213 | 0.306 |
| PIGG | -0.16 | 2.58 | -0.0414 | -0.345 | -0.189 |
| GPR108 | 0.183 | 2.65 | 0.317 | 0.12 | 0.0659 |
| IL2RB | 0.159 | 1.44 | 0.34 | 0.126 | 0.0383 |
| IGF2 | -0.0287 | 1.49 | -0.0413 | -0.121 | 0.108 |
| TREM2 | 0.107 | 2.6 | 0.0964 | -0.0916 | 0.309 |
| NLRP10 | 0.511 | 1.43 | 0.532 | 0.45 | 0.039 |
| OSGIN2 | -0.08 | 1.92 | -0.116 | -0.0448 | -0.265 |
| TPCN1 | -0.181 | 1.55 | -0.102 | -0.178 | 0.0161 |
| IL10 | 0.35 | 1.37 | 0.187 | 0.232 | 0.487 |
| KLK11 | -0.59 | 2.05 | -0.771 | -0.31 | -0.547 |
| MICB | -0.209 | 1.48 | -0.359 | -0.601 | -0.156 |
| XPO1 | -0.412 | 1.89 | -0.335 | -0.4 | -0.238 |
| MAP3K21 | 0.185 | 1.74 | 0.577 | 0.292 | -0.606 |
| DSN1 | 0.275 | 1.72 | 0.307 | 0.461 | 0.124 |
